Source: US7947704B2, “2,4,6-phenyl-substituted cyclic ketoenols” (Bayer CropScience AG, priority 2004, dated 2011)
Some of these results come from one statement about several compounds together. At least one structure is not confirmed: it was looked up by name or label, or the drawing left a doubt.

Columns and labels:
Format in all cases: in vivo
[1] = tested on: Aphis gossypii; experiment: Aphis gossypii Test (cotton leaves dipped); details: 100 ppm; after 6 d
[2] = tested on: Tetranychus urticae; experiment: Tetranychus Test (OP resistant/spray treatment); details: 100 g/ha; after 5 d
[3] = tested on: Phaedon cochleariae; experiment: Phaedon Test (spray treatment); details: 500 g/ha; after 7 d
[4] = tested on: Setaria; experiment: Herbicidal post-emergence action; details: 320 g of a.i./ha
[5] = tested on: Avena sativa; experiment: Herbicidal post-emergence action; details: 320 g of a.i./ha
[6] = tested on: Lolium; experiment: Herbicidal post-emergence action; details: 320 g of a.i./ha

Structure (SMILES)	kill rate against Aphis gossypii [1] [%]	kill rate against Tetranychus urticae [2] [%]	kill rate against Phaedon cochleariae [3] [%]	kill rate against Setaria [4] [%]	kill rate against Avena sativa [5] [%]	kill rate against Lolium [6] [%]
COc1cc(C)cc(Cl)c1C1=C(O)C2(CCCC2)OC1=O [Ex. I-2-a-1]	≥ 80					
COc1cc(C)cc(Cl)c1C1=C(OC(=O)C(C)C)C2(CCC(OC)CC2)OC1=O (mixture of isomers) [Ex. I-2-b-2]		≥ 80	≥ 80	≥ 70	≥ 70	≥ 70
CCOC(=O)OC1=C(c2c(Cl)cc(C)cc2OC)C(=O)NC1(C)C [Ex. I-1-c-2]				≥ 70	≥ 70	≥ 70
CCOC(=O)OC1=C(c2c(Cl)cc(C)cc2OC)C(=O)OC12CCOCC2 [Ex. I-2-c-3]	≥ 80	≥ 80				
COc1cc(C)cc(Cl)c1C1=C(O)C2(CCC(OC)CC2)NC1=O (single isomer, unassigned) [Ex. I-1-a-3]		≥ 80	≥ 80	≥ 70	≥ 70	≥ 70
CCOC(=O)OC1=C(c2c(Cl)cc(C)cc2OC)C(=O)OC12CCC(OC)CC2 (mixture of isomers) [Ex. I-2-c-2]		≥ 80	≥ 80	≥ 70	≥ 70	≥ 70
COc1cc(C)cc(Cl)c1C1=C(O)C2(CCOCC2)OC1=O [Ex. I-2-a-3]				≥ 70	≥ 70	≥ 70
COc1cc(C)cc(Cl)c1C1=C(O)C2(CCOCC2)NC1=O [Ex. I-1-a-1]			≥ 80	≥ 70	≥ 70	≥ 70
COc1cc(C)cc(Cl)c1C1=C(O)C(C)(C)NC1=O [Ex. I-1-a-2]		≥ 80		≥ 70	≥ 70	≥ 70
COCC(=O)OC1=C(c2c(Cl)cc(C)cc2OC)C(=O)NC1(C)C [Ex. I-1-b-2]				≥ 70	≥ 70	≥ 70
COc1cc(C)cc(Cl)c1C1=C(O)C2(CCC(OC)CC2)OC1=O (centres unmarked) [Ex. I-2-a-2]		≥ 80		≥ 70	≥ 70	≥ 70
COc1cc(C)cc(Cl)c1C1=C(OC(=O)C(C)C)C2(CCOCC2)OC1=O [Ex. I-2-b-3]	≥ 80					
COc1cc(C)cc(Cl)c1C1=C(OC(=O)C(C)C)C2(CCCC2)OC1=O [Ex. I-2-b-1]		≥ 80		≥ 70	≥ 70	≥ 70
